Compound in this experiment: Cc1nc(Nc2ncc(C(=O)Nc3c(C)cccc3Cl)s2)cc(N2CCN(CCO)CC2)n1 [dasatinib]
Nature of the experiment: log2 fold change of tryptic peptide abundance, ligand vs vehicle (limited proteolysis) (log2 ratio); higher = more trypsin-susceptible (destabilized). To be noted: ligand concentration: 5 uM; sample: K562 cleared lysate.

Protein sequences, listed by entry. Tags and fused reporters are not part of them. Lines headed by an entry give the natural chain unless they say otherwise; changes in a name come on top.
UniProt P10242: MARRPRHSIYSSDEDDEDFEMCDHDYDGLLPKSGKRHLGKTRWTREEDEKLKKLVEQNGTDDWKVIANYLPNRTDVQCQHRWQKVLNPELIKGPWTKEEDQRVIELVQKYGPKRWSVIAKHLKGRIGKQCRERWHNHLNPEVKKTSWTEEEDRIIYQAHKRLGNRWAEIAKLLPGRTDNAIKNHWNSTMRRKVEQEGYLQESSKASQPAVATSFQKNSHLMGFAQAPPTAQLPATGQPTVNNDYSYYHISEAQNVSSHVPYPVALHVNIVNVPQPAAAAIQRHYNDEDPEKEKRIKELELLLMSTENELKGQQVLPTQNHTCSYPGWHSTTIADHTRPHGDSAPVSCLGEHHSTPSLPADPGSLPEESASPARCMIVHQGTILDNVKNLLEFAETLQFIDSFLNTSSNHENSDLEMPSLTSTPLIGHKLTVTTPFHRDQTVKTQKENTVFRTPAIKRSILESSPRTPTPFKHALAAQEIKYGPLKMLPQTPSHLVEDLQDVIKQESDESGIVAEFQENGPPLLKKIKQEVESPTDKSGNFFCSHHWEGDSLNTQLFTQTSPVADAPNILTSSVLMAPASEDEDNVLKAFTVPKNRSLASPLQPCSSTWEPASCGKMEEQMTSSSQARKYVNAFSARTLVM
UniProt P01033: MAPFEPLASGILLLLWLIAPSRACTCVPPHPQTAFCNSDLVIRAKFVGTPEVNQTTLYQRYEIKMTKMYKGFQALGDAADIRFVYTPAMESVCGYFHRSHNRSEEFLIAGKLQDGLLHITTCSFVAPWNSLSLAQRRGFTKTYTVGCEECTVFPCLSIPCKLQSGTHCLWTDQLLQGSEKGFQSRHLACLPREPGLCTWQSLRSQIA
UniProt P11766: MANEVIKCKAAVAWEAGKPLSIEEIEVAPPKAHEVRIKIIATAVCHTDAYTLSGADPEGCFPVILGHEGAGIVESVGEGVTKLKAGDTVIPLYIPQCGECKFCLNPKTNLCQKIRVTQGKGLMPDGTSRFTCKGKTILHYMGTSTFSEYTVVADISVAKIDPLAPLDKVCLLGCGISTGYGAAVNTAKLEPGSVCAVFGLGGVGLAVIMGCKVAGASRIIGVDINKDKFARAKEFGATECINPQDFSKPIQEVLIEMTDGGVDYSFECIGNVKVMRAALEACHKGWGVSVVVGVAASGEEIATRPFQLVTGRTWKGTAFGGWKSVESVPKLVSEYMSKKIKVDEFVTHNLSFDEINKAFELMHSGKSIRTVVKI
UniProt P02786, whole entry, looked up: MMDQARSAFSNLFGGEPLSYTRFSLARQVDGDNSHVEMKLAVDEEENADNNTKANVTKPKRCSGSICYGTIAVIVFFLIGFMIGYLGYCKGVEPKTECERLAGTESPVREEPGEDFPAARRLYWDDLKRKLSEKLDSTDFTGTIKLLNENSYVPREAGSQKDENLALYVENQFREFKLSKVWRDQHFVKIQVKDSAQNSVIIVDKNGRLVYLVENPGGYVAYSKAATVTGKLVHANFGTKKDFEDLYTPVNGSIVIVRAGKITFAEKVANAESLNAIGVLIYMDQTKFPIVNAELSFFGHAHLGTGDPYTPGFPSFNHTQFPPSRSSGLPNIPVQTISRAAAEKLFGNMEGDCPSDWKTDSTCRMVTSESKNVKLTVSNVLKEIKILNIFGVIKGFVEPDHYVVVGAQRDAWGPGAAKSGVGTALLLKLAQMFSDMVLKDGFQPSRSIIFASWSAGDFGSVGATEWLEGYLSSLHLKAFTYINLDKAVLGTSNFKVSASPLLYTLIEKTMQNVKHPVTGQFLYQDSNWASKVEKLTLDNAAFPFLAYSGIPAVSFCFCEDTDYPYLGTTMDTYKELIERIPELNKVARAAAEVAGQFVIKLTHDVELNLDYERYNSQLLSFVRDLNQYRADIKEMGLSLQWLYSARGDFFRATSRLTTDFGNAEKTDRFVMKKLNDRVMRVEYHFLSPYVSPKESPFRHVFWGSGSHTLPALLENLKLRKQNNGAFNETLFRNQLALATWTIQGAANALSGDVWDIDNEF
UniProt P05060: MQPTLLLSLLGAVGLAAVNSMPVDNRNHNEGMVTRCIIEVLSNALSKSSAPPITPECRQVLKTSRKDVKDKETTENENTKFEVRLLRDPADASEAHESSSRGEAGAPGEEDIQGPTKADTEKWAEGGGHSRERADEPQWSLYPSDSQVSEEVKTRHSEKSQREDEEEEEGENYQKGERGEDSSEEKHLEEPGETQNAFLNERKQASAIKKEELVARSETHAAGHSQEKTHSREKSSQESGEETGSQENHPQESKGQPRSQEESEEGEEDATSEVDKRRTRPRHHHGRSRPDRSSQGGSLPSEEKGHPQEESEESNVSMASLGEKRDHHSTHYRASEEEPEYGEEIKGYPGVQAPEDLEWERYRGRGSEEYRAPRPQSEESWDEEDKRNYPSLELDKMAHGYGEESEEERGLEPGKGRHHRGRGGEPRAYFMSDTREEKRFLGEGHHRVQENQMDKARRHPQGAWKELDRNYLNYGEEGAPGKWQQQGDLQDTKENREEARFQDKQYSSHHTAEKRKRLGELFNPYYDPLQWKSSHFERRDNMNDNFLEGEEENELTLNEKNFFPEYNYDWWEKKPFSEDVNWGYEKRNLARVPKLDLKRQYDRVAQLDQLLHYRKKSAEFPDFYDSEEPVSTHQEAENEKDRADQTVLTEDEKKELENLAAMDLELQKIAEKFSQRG
UniProt P0DMM9: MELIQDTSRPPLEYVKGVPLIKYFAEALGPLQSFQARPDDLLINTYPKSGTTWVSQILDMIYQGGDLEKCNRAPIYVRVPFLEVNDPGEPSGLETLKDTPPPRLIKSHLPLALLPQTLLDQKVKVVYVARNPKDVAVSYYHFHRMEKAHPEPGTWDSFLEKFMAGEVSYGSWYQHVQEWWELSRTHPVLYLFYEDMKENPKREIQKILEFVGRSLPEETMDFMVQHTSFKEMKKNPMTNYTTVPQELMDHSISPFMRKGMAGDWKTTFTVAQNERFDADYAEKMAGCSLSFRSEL
UniProt P07311: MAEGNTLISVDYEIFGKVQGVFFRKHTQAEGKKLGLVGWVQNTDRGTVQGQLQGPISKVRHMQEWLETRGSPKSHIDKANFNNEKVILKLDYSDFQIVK
UniProt P11142, whole entry, looked up: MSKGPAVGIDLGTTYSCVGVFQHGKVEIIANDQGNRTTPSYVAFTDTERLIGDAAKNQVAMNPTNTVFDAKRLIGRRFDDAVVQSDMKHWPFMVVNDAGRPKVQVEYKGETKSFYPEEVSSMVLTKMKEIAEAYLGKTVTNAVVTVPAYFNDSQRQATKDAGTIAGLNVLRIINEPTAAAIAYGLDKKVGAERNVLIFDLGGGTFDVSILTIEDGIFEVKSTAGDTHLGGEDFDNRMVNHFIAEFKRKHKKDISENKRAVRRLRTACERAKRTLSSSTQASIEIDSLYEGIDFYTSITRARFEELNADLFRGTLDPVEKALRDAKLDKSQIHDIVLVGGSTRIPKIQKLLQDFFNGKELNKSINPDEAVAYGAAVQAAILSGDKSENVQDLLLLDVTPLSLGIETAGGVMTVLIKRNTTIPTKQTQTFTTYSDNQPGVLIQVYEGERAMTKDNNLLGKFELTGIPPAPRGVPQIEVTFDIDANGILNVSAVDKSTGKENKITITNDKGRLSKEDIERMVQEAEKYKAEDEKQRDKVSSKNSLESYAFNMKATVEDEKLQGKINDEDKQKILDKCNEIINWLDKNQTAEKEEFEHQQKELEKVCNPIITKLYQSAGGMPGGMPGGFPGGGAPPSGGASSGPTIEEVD
UniProt P05387, whole entry: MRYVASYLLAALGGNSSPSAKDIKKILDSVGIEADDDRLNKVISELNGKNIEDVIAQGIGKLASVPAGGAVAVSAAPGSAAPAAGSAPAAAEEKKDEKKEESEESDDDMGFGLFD
UniProt P08579, whole entry: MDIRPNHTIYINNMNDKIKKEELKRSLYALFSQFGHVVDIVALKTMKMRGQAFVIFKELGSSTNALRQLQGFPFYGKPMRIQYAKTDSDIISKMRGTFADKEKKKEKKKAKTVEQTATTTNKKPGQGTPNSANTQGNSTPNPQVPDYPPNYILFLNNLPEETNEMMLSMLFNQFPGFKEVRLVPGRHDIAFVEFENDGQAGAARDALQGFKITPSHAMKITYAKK
UniProt P11474: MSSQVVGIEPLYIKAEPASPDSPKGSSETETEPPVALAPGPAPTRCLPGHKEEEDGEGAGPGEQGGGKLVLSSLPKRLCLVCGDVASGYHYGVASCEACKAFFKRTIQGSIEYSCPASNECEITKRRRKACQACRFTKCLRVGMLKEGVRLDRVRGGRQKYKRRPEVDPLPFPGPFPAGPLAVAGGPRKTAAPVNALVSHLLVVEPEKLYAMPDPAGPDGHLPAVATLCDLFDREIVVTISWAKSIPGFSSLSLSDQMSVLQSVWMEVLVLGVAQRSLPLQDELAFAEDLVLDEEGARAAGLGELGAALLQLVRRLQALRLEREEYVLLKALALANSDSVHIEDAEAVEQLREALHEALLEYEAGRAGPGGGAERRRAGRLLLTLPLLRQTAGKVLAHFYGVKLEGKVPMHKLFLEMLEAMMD

The list shows a part of the results. Most entries show no effect beyond the scatter of the controls.

For the target “MYB (peptide sequence: IIYQAHKR, peptide start residue: 154) (UniProt P10242)”, the log2 fold change was -0.774.

Take “TIMP1 (peptide sequence: GFQALGDAADIR, peptide start residue: 71) (UniProt P01033)”: the log2 fold change was -0.0892.

As to “ADH5 (peptide sequence: AFELMHSGK, peptide start residue: 358) (UniProt P11766)”, the log2 fold change is -0.241.

Regarding “TFRC (peptide sequence: YNSQLLSFVR, peptide start residue: 614) (UniProt P02786)”, the log2 fold change was -0.498.

Consider “UniProt P05060 (peptide sequence: YRGRGSEEYR, peptide start residue: 362)”, for which the log2 fold change is -0.0169.

For the target “UniProt P0DMM9 (peptide sequence: AHPEPGTWDSFLEK, peptide start residue: 148)”, the log2 fold change is 0.12.

As to “ACYP1 (peptide sequence: GTVQGQLQGPISK, peptide start residue: 46) (UniProt P07311)”, the log2 fold change was 0.32.

With “HSPA8 (peptide sequence: RNTTIPTK, peptide start residue: 416) (UniProt P11142)”, the log2 fold change was 0.727.

Turning to “RPLP2 (peptide sequence: ILDSVGIEADDDRLNKVISELNGK, peptide start residue: 26) (UniProt P05387)”, the log2 fold change is 0.627.

As for “SNRPB2 (peptide sequence: HDIAFVEFENDGQAGAAR, peptide start residue: 187) (UniProt P08579)”, the log2 fold change came out at 0.461.

For “ESRRA (peptide sequence: CLPGHKEEEDGEGAGPGEQGGGK, peptide start residue: 46) (UniProt P11474)”, the log2 fold change is 0.531.

Values taken from the supplement of paper PMC12819154, “High-throughput peptide-centric local stability assay extends protein–ligand identification to membrane proteins, tissues and bacteria” (Nature Structural & Molecular Biology, 2025).
